The values that follow come from US12454527B2 (priority 2019, dated 2025).

A short description of this data set: peptide synthesis. The settings on record: conjugation step.

The substance “(3S,7S,25S,28S)-25-benzyl-33-(4-(4-(((R)-1-(((S)-1-((4-((5S,8S,11S,12R)-11-((S)-sec-butyl)-12-(2-((S)-2-((1R,2R)-3-(((1S,2R)-1-hydroxi-1-phenylpropan-2-yl)amino)-1-methoxi-2-methyl-3-oxopropyl) pyrrolidine-1-yl)-oxoethyl)-5,8-diisopropyl-4,10-dimethyl-3,6,9-trioxo-2,13-dioxo-4,7,10-triazatetradecyl)phenyl)amino)-1-oxo-5-ureidopentan-2-yl)amino)-3-methyl-1-oxobutan-2-yl)amino)-4-oxobutyl)-1H-1,2,3-triazol-1-yl)-12-(3-chlorbenzyl)-28-(4-hydroxybenzyl)-5,13,20,23,26,29-hexaoxo-4,6,12,19,24,27,30-heptaazatritracontan-1,3,7-tricarboxylic acid” came in with a conjugation yield of 78%.
